T1: Human VISTA recombinant protein (Sino Biological Inc., Cat. #13482-H08H), biotinylated (human) (UniProt Q9H7M9)
T1 sequence (chain, biotinylated with EZ-LINK NHS-PEG4 biotin): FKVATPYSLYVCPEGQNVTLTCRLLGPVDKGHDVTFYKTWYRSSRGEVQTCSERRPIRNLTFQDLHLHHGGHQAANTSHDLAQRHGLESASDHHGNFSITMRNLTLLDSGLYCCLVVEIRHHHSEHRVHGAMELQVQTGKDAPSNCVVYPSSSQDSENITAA

B1: anti-VISTA antibody 16A1 (antibody, IgG1, V domains shown)
VH: QVQLQQSGAELMKPGASVKISCKATGYTFSSSWIEWVKQRPGHGLEWIGEIFPGSGSLNFNEKFKGKATFTADTSSNTAYLQLSSLTSDDSAVYYCARRPPGWFFDVWGAGTTVTVSS
VL: DIVMTQSHKFMSTSVGDRVSITCKASQDVTTDVAWYQQKPGQSPKLLIYSASYRYTGVPDRFTGSGSGTDFTFTISSVQAEDLTVYYCQQHYSSPWTFGGGTKLEIK
B2: anti-VISTA antibody 20E4 (antibody, IgG1, V domains shown)
VH: B1 VH with I34V, K38R, L58T, N59H, F60Y
VL: B1 VL with T30S, T84A, S94T
B3: anti-VISTA antibody 17E9 (antibody, IgG1, V domains shown)
VH: QVQLQQSGAELMKPGASVKISCTATGYTFSSCWIEWVKQRPGHGLEWLGEILPGSDYTNYNEKFKDKATFTADTSSDTAYMQLSSLTSEDSAVYYCARRPPGWYFDVWGAGTAVTVSS
VL: B1 VL with T30S, V33I, Y55F, T84A, Q90H, H91Q, S94T, E105D
B4: anti-VISTA antibody 15D11 (antibody, V domains shown)
VH: EVQLQQSGSELVKAGASVKLSCTASGFKIKDTFIHWVKQRPEQGLDWIGRIDPANGNSKYDPKFQGKATITADTSSNTAYLQLSSLTSEDTAVYYCARWPSNWEAMDYWGQGTSVTVSS
VL: QIVLTQSPAIMSASPGEKVTMTCSASSSVSYMYWYQQKPGSSPRLLIYDTSNLASGVPFRFSGSGSGTSYSLTISRMEAEDAATYYCQQWISYPLTFGTGTKLELK
B5: anti-VISTA antibody 9F9 (antibody, V domains shown)
VH: QVQFQQSGAELARPGASVKLSCKASGYTFTGYWMQWVKQRPGQGLEWIGAIYPGDGDTRYSQKFKGKVTLTADKSSSTAYMQLSSLASEDSAVYYCARRDYGAWFAYWGQGTLVTVSA
VL: DIKVTQSPSSMYASLGERVTITCKASQDINSYLSWFQQKPGKSPKTLIYRANRLVDGVPSRFSGSGSGQDYSLTISSLDYEDMGIYYCLQYDEFPYTFGGGTKLEIK

Substitutions are numbered along the chain they refer to. No constants are given. Whether binding was seen depends on the method and setting. Some entries that bind do so weakly or less than the wild type.

The first test concerns the target His-tagged cynomolgus VISTA extracellular domain protein (in house) (cynomolgus). Description: ELISA, hybridoma supernatant on coated cynomolgus VISTA (2 µg/mL).
As for B1, the binding entry was “binds”. Same read-out and setting: under B2 stands “binds”; under B3, “binds”; under B4, “binds”. Still for that read-out and setting: to B5 belongs “binds”.

For the next test, the target named is T1, Human VISTA recombinant protein (Sino Biological Inc., Cat. #13482-H08H), biotinylated (human). Description: BLI (Octet QKe) epitope binning, biotinylated human VISTA on streptavidin tips, antibodies at 10 µg/ml.
For the molecule B4, the binding entry is listed as “binds”. Consider B5, for which the binding entry is “binds”.

These data come from US20240141048A1.
